Source: publication PMC7719709
Results are given in words; binding and its absence hold for the method and conditions named. In cells and extracts the contact can be indirect. Some binding calls cover weakened binding; strength is not graded here. For some assays here: Sequences can lack the tags named with a protein.

The chains behind the UniProt entries cited, without tags or fusion partners.
UniProt Q99728: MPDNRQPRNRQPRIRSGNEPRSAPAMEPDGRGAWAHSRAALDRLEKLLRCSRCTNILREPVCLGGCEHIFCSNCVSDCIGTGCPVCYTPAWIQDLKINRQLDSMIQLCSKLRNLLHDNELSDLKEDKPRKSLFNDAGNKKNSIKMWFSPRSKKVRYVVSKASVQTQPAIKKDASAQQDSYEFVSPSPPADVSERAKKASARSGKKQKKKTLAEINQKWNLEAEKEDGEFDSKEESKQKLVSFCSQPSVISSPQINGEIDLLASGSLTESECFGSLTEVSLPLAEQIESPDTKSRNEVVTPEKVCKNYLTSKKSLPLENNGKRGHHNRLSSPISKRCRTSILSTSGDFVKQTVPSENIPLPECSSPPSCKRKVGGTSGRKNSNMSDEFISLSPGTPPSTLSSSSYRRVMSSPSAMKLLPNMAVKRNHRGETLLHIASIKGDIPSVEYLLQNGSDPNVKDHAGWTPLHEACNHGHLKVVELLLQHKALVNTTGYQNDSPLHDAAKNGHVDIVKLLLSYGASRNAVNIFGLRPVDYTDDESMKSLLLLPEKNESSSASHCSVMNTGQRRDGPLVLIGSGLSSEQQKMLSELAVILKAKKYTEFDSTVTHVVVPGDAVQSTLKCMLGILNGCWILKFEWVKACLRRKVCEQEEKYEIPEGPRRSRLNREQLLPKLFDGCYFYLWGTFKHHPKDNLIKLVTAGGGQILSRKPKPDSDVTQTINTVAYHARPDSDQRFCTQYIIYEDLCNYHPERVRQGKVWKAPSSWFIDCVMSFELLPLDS
UniProt P09874: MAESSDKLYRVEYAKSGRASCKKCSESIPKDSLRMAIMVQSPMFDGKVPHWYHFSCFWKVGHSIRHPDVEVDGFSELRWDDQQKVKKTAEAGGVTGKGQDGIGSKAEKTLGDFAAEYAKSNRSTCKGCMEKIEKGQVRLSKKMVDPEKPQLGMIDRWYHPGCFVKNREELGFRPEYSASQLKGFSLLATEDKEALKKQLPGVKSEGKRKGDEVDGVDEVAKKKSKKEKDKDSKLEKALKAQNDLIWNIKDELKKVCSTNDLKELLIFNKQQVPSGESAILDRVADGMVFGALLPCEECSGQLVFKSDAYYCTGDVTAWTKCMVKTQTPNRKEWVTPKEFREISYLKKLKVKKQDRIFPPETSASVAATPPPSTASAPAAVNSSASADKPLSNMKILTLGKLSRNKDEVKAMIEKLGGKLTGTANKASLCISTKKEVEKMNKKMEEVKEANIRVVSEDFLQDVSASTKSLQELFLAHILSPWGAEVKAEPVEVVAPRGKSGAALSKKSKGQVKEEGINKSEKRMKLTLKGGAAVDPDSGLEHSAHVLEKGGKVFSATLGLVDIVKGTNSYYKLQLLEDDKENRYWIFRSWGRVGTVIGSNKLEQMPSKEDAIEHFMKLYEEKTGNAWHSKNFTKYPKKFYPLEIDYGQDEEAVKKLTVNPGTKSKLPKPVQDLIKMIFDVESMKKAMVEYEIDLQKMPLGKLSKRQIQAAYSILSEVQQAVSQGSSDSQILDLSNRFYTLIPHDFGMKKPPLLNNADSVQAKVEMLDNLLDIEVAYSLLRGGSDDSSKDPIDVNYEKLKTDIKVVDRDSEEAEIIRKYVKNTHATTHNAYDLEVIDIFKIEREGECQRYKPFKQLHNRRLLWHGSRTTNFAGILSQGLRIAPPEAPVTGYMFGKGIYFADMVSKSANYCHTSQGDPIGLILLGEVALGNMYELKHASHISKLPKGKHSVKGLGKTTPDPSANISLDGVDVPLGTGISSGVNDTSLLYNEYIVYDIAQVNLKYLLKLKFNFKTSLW

What was measured:
[1] = target: BARD1 tagged with a turboGFP (UniProt Q99728); assay: co-IP; anti-turboGFP immunoprecipitation from HEK293T cells transfected with BARD1–turboGFP; cells untreated or treated with MMS, UV or cisplatin for 3 h
FLAG-tagged HLTF (human) = target: T1, FLAG-tagged HLTF (human) (UniProt Q14527); assay: co-IP; anti-FLAG immunoprecipitation from lysates of HEK293T cells transfected with FLAG–HLTF or its constructs (with BARD1–turboGFP co-transfected in Fig. 1c); immunoblotting; cells untreated or treated with 1.2 mM MMS, 60 J/m^2 UV or 5 μM cisplatin for 3 h
T1 sequence: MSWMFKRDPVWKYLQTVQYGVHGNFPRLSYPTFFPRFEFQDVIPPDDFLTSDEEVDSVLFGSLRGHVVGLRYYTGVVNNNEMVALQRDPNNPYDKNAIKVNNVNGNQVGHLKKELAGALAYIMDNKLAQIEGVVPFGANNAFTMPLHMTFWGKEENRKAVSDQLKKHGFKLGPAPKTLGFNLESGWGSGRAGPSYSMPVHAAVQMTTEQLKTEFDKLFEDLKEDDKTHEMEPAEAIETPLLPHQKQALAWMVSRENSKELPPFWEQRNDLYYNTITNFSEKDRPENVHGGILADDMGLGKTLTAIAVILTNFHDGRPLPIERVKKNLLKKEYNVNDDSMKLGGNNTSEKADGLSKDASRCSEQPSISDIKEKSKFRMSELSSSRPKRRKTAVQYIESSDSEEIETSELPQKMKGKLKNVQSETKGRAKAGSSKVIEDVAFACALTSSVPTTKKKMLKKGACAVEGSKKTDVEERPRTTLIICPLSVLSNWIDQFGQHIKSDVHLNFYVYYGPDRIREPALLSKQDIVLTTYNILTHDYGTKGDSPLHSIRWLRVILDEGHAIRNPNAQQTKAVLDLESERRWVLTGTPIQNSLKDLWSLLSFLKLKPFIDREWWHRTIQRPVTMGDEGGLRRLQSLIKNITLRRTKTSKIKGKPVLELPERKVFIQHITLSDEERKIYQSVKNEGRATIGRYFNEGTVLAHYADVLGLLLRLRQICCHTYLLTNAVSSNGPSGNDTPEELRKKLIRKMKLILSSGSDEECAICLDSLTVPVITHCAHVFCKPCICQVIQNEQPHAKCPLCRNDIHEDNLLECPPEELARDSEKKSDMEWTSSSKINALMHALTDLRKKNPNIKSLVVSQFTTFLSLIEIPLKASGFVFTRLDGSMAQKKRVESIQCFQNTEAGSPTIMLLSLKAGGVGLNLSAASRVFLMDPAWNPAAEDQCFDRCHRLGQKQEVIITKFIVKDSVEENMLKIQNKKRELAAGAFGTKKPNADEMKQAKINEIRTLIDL

## PARP1 (endogenous) (from UniProt P09874 1-1014)
[1]
  binding: binds
FLAG-tagged HLTF (human)
  binding: binds
